These are yes or no findings as the source states them, for the method shown. A result given as binding can be weak or reduced; the word gives no strength.
Molecular target: Rok1 (pGBKT7-Rok1) (Ustilago maydis)
Test: two-hybrid; Matchmaker 3 (Clontech), yeast AH109; pGBKT7-Rok1 with pGADT7-Kpp2 or pGADT7-Kpp6; spotted on SD without Leu/Trp and SD without Ade/His/Leu/Trp

## Kpp6 (pGADT7-Kpp6) (from UniProt A0A0D1E5Y2) (enzyme)
  binding: binds
